Experimental findings from patent US20030153551A1, “Method for treating ocular neovascular diseases” (priority 2002, published 2003) are described below.

The subject of the experiment is retinal neovascularization. Kind of experiment: Oxygen-induced ischemic retinopathy in mice, lectin staining of retinal endothelial cells with image analysis. Format: in vivo, C57/BL6J mice. The following applies: 600 mg/kg once a day for 5 days, gavage. The method, then: Ophthalmol. Vis. Sci. 35, 101-111 (1994). […] N-benzoyl-staurosporine (NBS) is dissolved in dimethyl sulfoxide (DMSO) and diluted to final concentrations with water; the maximum concentration of DMSO is 1%. Vehicle (1% DMSO) or vehicle containing various concentrations of the drug (volume=10 μl per gram body weight) is placed in the stomach by gavage. Different mice are given 60, 300 or 600 mg of NBS per kg of body weight. As a control, a group of mice are given the vehicle without NBS.
Some slides are counterstained with hematoxyln and all were mounted with Cytoseal.

The structures appear in SMILES notation.

With `CO[C@@H]1[C@H](N(C)C(=O)c2ccccc2)C[C@H]2O[C@]1(C)n1c3ccccc3c3c4c(c5c6ccccc6n2c5c31)C(=O)NC4` [NBS, N-benzoyl-staurosporine], the “inhibition of neovascularization (endothelial cells on the surface of the retina, high magnification)” value was “complete inhibition of neovascularization”.
